# What follows is the remainder of the data, with few or none of the hits. Records with an inconclusive call do not appear. Calls of active or inactive are those of the source. How the source made its calls: active means hit-call score of the fitted dose curve at least 0.9, where 1 is the maximum; inconclusive means response in the unintended direction; inactive means score below 0.9.
# Assay: ACEA_AR_agonist_AUC_viability: ACEA Biosciences xCELLigence Real-Time Cell Analysis on Androgen Receptor Agonism for Viability (AID 2283775);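 on AC50: viability read 80 hours after compound addition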
# Outline: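 Viability endpoint from xCELLigence impedance in 22Rv1 prostate cells at 80 h. Eight-point series, 100 uM maximum final.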
SMILES,AC50,outcome
CCCCC(CC)COP(=O)(O)OCC(CC)CCCC (stereo unspecified),active: 16.6 µM,–
CCCCCCCCCCCCN1CCOCC1,–,inactive
CC[N+](CC)(CC(=O)Nc1c(C)cccc1C)Cc1ccccc1,–,inactive

# Assay: ACEA_AR_antagonist_AUC_viability: ACEA Biosciences xCELLigence Real-Time Cell Analysis on Androgen Receptor Antagonism for Viability (AID 2283776);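 further: 22Rv1 human prostate cancer cells growing on impedance electrode plates; area under impedance growth curve at 80 h after dosing as viability; hits lower the growth signal relative to DMSO meaning cytotoxicity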
# Outline: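 Viability endpoint from label-free cell-index monitoring: 22Rv1 cultures treated with an eight-point 1:4 dilution series starting at 100 uM final, AUC at 80 h fitted against DMSO.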
row,SMILES,outcome
1,CC(C)c1ccc(O)c(C(C)C)c1,inactive
2,CN(C)CCCN1c2ccccc2Sc2ccc(Cl)cc21,inactive
3,CC[N+](CC)(CC(=O)Nc1c(C)cccc1C)Cc1ccccc1,inactive

# From PubChem BioAssay (EPA / NIEHS)
